Results are given in words; binding and its absence hold for the method and conditions named. In cells and extracts the contact can be indirect. Some entries that bind do so weakly or less than the wild type. Tags and fused reporters may be left off the sequences shown.
Target: T1, FLAG-tagged PKG-Iβ (pcDNA-f:PKG-Iβ) (UniProt Q13976)
T1 sequence: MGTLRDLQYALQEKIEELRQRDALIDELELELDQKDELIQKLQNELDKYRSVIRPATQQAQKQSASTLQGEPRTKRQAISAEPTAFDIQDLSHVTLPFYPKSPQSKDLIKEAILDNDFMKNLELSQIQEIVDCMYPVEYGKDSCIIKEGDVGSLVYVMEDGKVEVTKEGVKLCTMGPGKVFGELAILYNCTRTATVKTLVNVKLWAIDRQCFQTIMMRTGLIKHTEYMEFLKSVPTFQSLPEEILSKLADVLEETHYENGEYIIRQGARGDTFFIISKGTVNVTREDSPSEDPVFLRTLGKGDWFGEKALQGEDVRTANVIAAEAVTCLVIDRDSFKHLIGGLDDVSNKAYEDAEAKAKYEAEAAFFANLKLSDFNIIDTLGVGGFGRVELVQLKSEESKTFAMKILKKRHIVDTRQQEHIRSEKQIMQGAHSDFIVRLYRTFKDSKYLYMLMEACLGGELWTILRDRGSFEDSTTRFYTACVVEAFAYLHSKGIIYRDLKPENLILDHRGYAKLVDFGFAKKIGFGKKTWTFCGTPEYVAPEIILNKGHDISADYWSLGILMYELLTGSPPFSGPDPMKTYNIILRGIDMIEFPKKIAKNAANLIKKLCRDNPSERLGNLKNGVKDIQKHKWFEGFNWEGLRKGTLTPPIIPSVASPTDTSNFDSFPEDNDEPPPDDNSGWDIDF
Assay: co-IP; whole-cell extracts of LNCaP cells transfected with pcDNA-f:PKG-Iβ; anti-p44 antibody on Protein A Sepharose or anti-FLAG M2 agarose; washes with 100 mM KCl, 0.1% NP-40; Western blot with anti-PKG or anti-p44

The chains behind the UniProt entries cited, without tags or fusion partners.
UniProt Q9BQA1: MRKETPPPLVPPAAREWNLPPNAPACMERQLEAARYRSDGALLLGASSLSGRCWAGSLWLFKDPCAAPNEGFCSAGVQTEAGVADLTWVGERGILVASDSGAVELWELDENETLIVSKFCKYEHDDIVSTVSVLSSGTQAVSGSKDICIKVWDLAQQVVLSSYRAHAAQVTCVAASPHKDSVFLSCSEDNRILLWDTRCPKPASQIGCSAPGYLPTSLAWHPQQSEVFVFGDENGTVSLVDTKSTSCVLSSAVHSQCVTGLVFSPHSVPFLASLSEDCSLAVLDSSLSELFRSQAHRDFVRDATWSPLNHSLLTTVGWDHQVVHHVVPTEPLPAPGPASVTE

binding: binds
Substance: p44/WDR77, endogenous in LNCaP cells (from UniProt Q9BQA1 1-342)
